Reference: PubChem BioAssay AID743458 (Peter MacCallum Cancer Centre, 2014)
Shown is a random part of about 1,800 reagents. Of all reagents, 732 (41%) are marked active. 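Calls are per siRNA reagent; a gene was deemed confirmed only if most of its four siRNAs scored.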 A number with no mark means an inactive call.

- Screen: 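Identify genes whose loss lifts vorinostat resistance in colon cancer cells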 (follow-up of hits)
- Cell system: human HCT116-VR colon cancer cells made resistant to vorinostat
- Knock-down reagent: single siRNA or pool against human genes, 25 nM per single siRNA
- Duration: about 72 h after transfection, including 24 h of drug
- Treatment: vorinostat, 2.5 µM final, for 24 h
- Measurement: 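Cell viability by fluorescence and apoptosis by caspase 3/7 luminescence under vorinostat, background-corrected, averaged across two plate copies and given as fold change versus mock transfection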
- Direction: viability relative to mock: higher = more living cells than mock; caspase activity relative to mock: higher = more apoptosis than mock
- Call rule: 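Active means a reduced-viability or caspase-activation class, anything else inactive; classes could only be given to wells that looked healthy when left untreated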

After knock-down of NRIP2 (nuclear receptor interacting protein 2) [SID134246017], the record shows viability relative to mock 0.94 (active); caspase activity relative to mock 5.4; viability hit class no change; caspase hit class caspase activation.
Against NRIP2 (nuclear receptor interacting protein 2) [SID134246018], the values are viability relative to mock 0.86; caspase activity relative to mock 1.67; viability hit class no change; caspase hit class no change.
Depletion of NRIP2 (nuclear receptor interacting protein 2) [SID134246019] came out at: viability relative to mock 0.79; caspase activity relative to mock 1.12; viability hit class no change; caspase hit class no change.
With knock-down of NRIP2 (nuclear receptor interacting protein 2) [SID134246020] the results were viability relative to mock 0.1; caspase activity relative to mock 4.19; viability hit class no change; caspase hit class no change.
ATP7B (ATPase copper transporting beta) [SID135615820] gave viability relative to mock 0.78; caspase activity relative to mock 2.42; viability hit class no change; caspase hit class no change.
ATP7B (ATPase copper transporting beta) [SID135615821] gave viability relative to mock 1.04; caspase activity relative to mock 1.26; viability hit class no change; caspase hit class no change.
For ATP7B (ATPase copper transporting beta) [SID135615822], the entry reads viability relative to mock 1.06; caspase activity relative to mock 1.24; viability hit class no change; caspase hit class no change.
For ATP7B (ATPase copper transporting beta) [SID135615823] the deposit lists viability relative to mock 0.92 (active); caspase activity relative to mock 3.56; viability hit class no change; caspase hit class caspase activation.
Against FAM3C (FAM3 metabolism regulating signaling molecule C) [SID134286550] the deposit lists viability relative to mock 0.84 (active); caspase activity relative to mock 3.15; viability hit class no change; caspase hit class caspase activation.
FAM3C (FAM3 metabolism regulating signaling molecule C) [SID134286551] scored viability relative to mock 0.74 (active); caspase activity relative to mock 2.98; viability hit class no change; caspase hit class caspase activation.
FAM3C (FAM3 metabolism regulating signaling molecule C) [SID134286552] showed viability relative to mock 0.9; caspase activity relative to mock 1.44; viability hit class no change; caspase hit class no change.
Knock-down of FAM3C (FAM3 metabolism regulating signaling molecule C) [SID135616291] came out at: viability relative to mock 0.68; caspase activity relative to mock 2.12; viability hit class no change; caspase hit class no change.
Knock-down of TANGO2 (transport and golgi organization 2 homolog) [SID134271297] came out at: viability relative to mock 0.96; caspase activity relative to mock 1.72; viability hit class no change; caspase hit class no change.
For TANGO2 (transport and golgi organization 2 homolog) [SID134271298], the values are viability relative to mock 0.7 (active); caspase activity relative to mock 4.06; viability hit class no change; caspase hit class caspase activation.
TANGO2 (transport and golgi organization 2 homolog) [SID134271299] scored viability relative to mock 0.31; caspase activity relative to mock 2.69; viability hit class no change; caspase hit class no change.
For TANGO2 (transport and golgi organization 2 homolog) [SID134271300], the values are viability relative to mock 0.6 (active); caspase activity relative to mock 3.54; viability hit class no change; caspase hit class caspase activation.
Knock-down of BEND6 (BEN domain containing 6) [SID134270261] came out at: viability relative to mock 1.09; caspase activity relative to mock 1.19; viability hit class no change; caspase hit class no change.
Against BEND6 (BEN domain containing 6) [SID134270262] the deposit lists viability relative to mock 0.9; caspase activity relative to mock 1.07; viability hit class no change; caspase hit class no change.
BEND6 (BEN domain containing 6) [SID134270263] scored viability relative to mock 0.99; caspase activity relative to mock 1.07; viability hit class no change; caspase hit class no change.
With knock-down of BEND6 (BEN domain containing 6) [SID134270264], the screen gave viability relative to mock 0.54 (active); caspase activity relative to mock 5.56; viability hit class reduced viability; caspase hit class caspase activation.
Knock-down of SLU7 (spliceosome associated SLU7) [SID134274289] resulted in: viability relative to mock 0.38 (active); caspase activity relative to mock 1.4; viability hit class reduced viability; caspase hit class no change.
With knock-down of SLU7 (spliceosome associated SLU7) [SID134274290], the record shows viability relative to mock 0.29 (active); caspase activity relative to mock 2.79; viability hit class reduced viability; caspase hit class caspase activation.
SLU7 (spliceosome associated SLU7) [SID134274291] gave viability relative to mock 0.44 (active); caspase activity relative to mock 2.54; viability hit class reduced viability; caspase hit class no change.
With knock-down of SLU7 (spliceosome associated SLU7) [SID134274292], the record shows viability relative to mock 0.45 (active); caspase activity relative to mock 2.55; viability hit class reduced viability; caspase hit class no change.
With knock-down of ZNF441 (zinc finger protein 441) [SID134273253], the record shows viability relative to mock 0.8 (active); caspase activity relative to mock 3.67; viability hit class no change; caspase hit class caspase activation.
Against ZNF441 (zinc finger protein 441) [SID134273254], the entry reads viability relative to mock 0.48 (active); caspase activity relative to mock 4.42; viability hit class reduced viability; caspase hit class caspase activation.
Silencing of ZNF441 (zinc finger protein 441) [SID134273255] came out at: viability relative to mock 0.62 (active); caspase activity relative to mock 4.31; viability hit class no change; caspase hit class caspase activation.
After knock-down of ZNF441 (zinc finger protein 441) [SID134273256], the screen gave viability relative to mock 0.82; caspase activity relative to mock 1.96; viability hit class no change; caspase hit class no change.

Records listed so far whose target name begins with S or s:
SLU7 (spliceosome associated SLU7) [SID134274289] → viability relative to mock = 0.38 (active); caspase activity relative to mock = 1.4; viability hit class = reduced viability; caspase hit class = no change
SLU7 (spliceosome associated SLU7) [SID134274290] → viability relative to mock = 0.29 (active); caspase activity relative to mock = 2.79; viability hit class = reduced viability; caspase hit class = caspase activation
SLU7 (spliceosome associated SLU7) [SID134274291] → viability relative to mock = 0.44 (active); caspase activity relative to mock = 2.54; viability hit class = reduced viability; caspase hit class = no change
SLU7 (spliceosome associated SLU7) [SID134274292] → viability relative to mock = 0.45 (active); caspase activity relative to mock = 2.55; viability hit class = reduced viability; caspase hit class = no change
